# Data published in US20050131238A1, “Spermicides” (SSL International plc, priority 2001, published 2005).
# Tested on: ME180 cells versus human sperm
# Experiment: Therapeutic index (ratio of cell cytotoxicity EC50 to spermicidal efficacy ED50)
# Method: 3. Determination of Therapeutic Index
# The therapeutic index is the ratio of cell cytoxicity EC50 datum to the spermicidal efficacy ED50 datum and is calculated using the data obtained in methods 1 and 2 above using the following formula: [formula] Test Compounds
row,SMILES,TI (therapeutic index)
1,O=C1C=CC(=O)N1c1ccccc1 [Compound 1],12
2,CCOC(=O)c1ccc(N2C(=O)C=CC2=O)cc1 [Compound 3],5
3,O=C1C=CC(=O)N1C1CCCCC1 [Compound 5],0.4
4,COC(=O)c1scc(C)c1N1C(=O)C=CC1=O [Compound 6],3
5,O=C1C=CC(=O)N1c1ccc2c(c1)OCCO2 [Compound 7],10
6,Cc1cc(N2C(=O)C=CC2=O)no1 [Compound 8],11
7,N#Cc1cccc(N2C(=O)C=CC2=O)c1 [Compound 9],2.6
8,O=C1C=CC(=O)N1CCN1C(=O)C=CC1=O [Compound 10],129
9,O=C1C=CC(=O)N1c1ccc(-c2ccc(N3C(=O)C=CC3=O)cc2)cc1 [Compound 11],>21
10,O=C1C=CC(=O)N1CCOCCOCCOCCN1C(=O)C=CC1=O [Compound 12],32
11,O=C1C=CC(=O)N1c1ccc(OCCOCCOCCOCCOCCOc2ccc(N3C(=O)C=CC3=O)cc2)cc1 [Compound 13],27
12,COCCOCCOCCOCCOc1ccc(N2C(=O)C=CC2=O)cc1 [Compound 14],2
13,O=C1C=CC(=O)N1c1ccc(OCCOCCOCCOCCOc2ccc(N3C(=O)C=CC3=O)cc2)cc1 [Compound 15],31
